# The list shows a part of the results. Shown are side measurements of this screen, not its main read-out; they come without a call. Compounds called inactive in the main read-out are mostly missing here. The note in brackets gives the kind of curve behind each potency; many fits are weak.
# Test: qHTS Assay for Lipid Storage Modulators in Drosophila S3 Cells;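 as to cell number change: cells counted by Cell Tracker Red CMTPX staining in the red channel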
# Settings: BODIPY lipid droplet fluorescence, 18-24 h; for cell number change: measured here: cell count max response, cells fed with added oleic acid
# Method in brief: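 Drosophila S3 cells loaded with oleic acid (400 uM, as added) and compounds at several concentrations; lipid droplets imaged by 488-nm laser-scanning cytometry, 500–530 nm intensity and object ratio to cell channel. Percent activity normalized to 20 uM Triacsin C.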
# [1] = measured here: cell number channel AC50, cells fed with added oleic acid
# [2] = measured here: lipid fluorescence (Fed channel) AC50, cells fed with added oleic acid
SMILES,cell number change,AC50 [1],AC50 [2]
O=C(Nc1ccc(F)cc1)C1CCN(S(=O)(=O)c2ccc3[nH]c(=O)oc3c2)CC1,-3.99%,"2.06 µM [rising, partial curve, poor fit]",–
CCn1c(C(O)c2ccc3c(c2)OCO3)nc2ccccc21 (stereo not given),-29.3%,–,"6.51 µM [falling, single point]"
O=C(Nc1ccc(N2CCN(Cc3ccccc3F)CC2)cc1)c1ccc([N+](=O)[O-])o1,-17.7%,–,"9.2 µM [falling, partial curve]"
CC(C)CCSc1cc(NCCO)c([N+](=O)[O-])c2nonc12,–,"7.31 µM [falling, single point]",–
C=CCN1C(=O)C(Cc2ccccc2Cl)SC1=Nc1ccc(C(=O)O)cc1 (stereo not given),-9.18%,–,"0.58 µM [falling, single point]"
CC(=O)NC(C)(C)C1CC=C(C)/C(=N\O)C1 (stereo not given),-54.1%,"0.461 µM [falling, full curve]","4.11 µM [falling, full curve]"
O=C(COC(=O)/C=C/c1ccc(F)cc1)NCc1ccco1,-23.4%,–,–
CCOc1ccccc1N(CC(=O)NC1CCCCC1)S(C)(=O)=O,-12.2%,–,–
CCOc1ccc(CCNC(=O)C2CC(C)=CCC2C(=O)O)cc1OCC (stereo not given),-24.3%,–,–
O=C(Nc1ccccc1N1CCCC1)c1cc(Cl)ccc1Cl,-47.5%,"32.6 µM [falling, single point]","29.1 µM [falling, single point]"
Cc1[nH][nH]c(=O)c1C(c1ccc(-c2ccc(Cl)cc2Cl)o1)c1c(C)[nH][nH]c1=O,5.06%,–,"0.517 µM [falling, single point]"
CC(CCc1ccccc1)NC(=O)C1CCCN(C(=O)c2cc3sccc3n2C)C1 (stereo not given),-18.3%,–,–
CCC(C)(C#CCN1CCCCC1)OC(C)=O (stereo not given),36.4%,"18.4 µM [rising, partial curve, poor fit]","32.6 µM [rising, single point]"
Cc1ccc(S(=O)(=O)N2CCC(C(=O)Nc3ccc(N4CCOCC4)cc3)CC2)cc1C,-31.7%,"4.61 µM [falling, full curve, poor fit]",–
CCCCNC(=O)C1CCCNC1=O (stereo not given),-0.104%,–,–
Cc1ccc(-n2ncc3c(N4CCCC(C)C4)ncnc32)c(C)c1 (stereo not given),-14.8%,–,"0.146 µM [rising, full curve, poor fit]"
Cc1ccc([N+](=O)[O-])c2c1C(N1CC(C)OC(C)C1)C(C)(C)O2 (stereo not given),4.78%,–,–
O=C(Nc1ccc(Cl)cc1)N1CCSCC1,-3.58%,–,"1.84 µM [falling, full curve, poor fit]"
O=C(COc1ccc2c(-c3ccccc3)cc(=O)oc2c1)Nc1ccc(CN2CCOCC2)cc1,17.6%,–,"6.51 µM [rising, single point]"
O=C(NC1CCC(NC(=O)C2CCCO2)CC1)C1CCCO1 (stereo not given),9.06%,–,"29.1 µM [falling, single point]"
CC(=O)N(CN1C(=O)c2ccccc2C1=O)c1ccc2c(c1)oc1ccccc12,-27.4%,"0.651 µM [falling, full curve, poor fit]","0.0206 µM [falling, full curve, poor fit]"

SMILES,cell number change,AC50 [1],AC50 [2]
Cc1cccnc1NC(=O)Nc1ccc(Cl)cc1,-2.19%,–,–
COc1ccc(-c2noc(-c3cc(Cl)ccc3Cl)n2)cc1OC,–,"0.651 µM [rising, partial curve]","0.651 µM [rising, partial curve]"
CC(=O)/C(=N\Nc1ccccc1)Oc1ccc([N+](=O)[O-])cc1,-56.9%,"29.1 µM [falling, single point]",–
Cc1nn(-c2ccccc2)c2c1C1(C(=O)N3c4c(cccc41)C(C)CC3(C)C)C(C#N)=C(N)O2 (stereo not given),-43.1%,–,–
CCCn1c(/C=N/Nc2nc3ccccc3[nH]2)nc2ccccc21,–,–,"16.4 µM [falling, single point]"
COc1ccc(Cc2nnc(NS(=O)(=O)c3ccc(Cl)cc3)s2)cc1OC,22.1%,–,"25.9 µM [rising, partial curve]"
COc1ccccc1OCC(=O)Nc1nonc1NC(=O)COc1ccccc1OC,-6.69%,–,"2.59 µM [falling, single point]"
CCCCc1cc(=O)oc2cc(OCC(=O)NC3CCN(Cc4ccccc4)CC3)ccc12,-17%,–,–
Cc1ccc(OCC(=O)NC(C)c2ccccc2)cc1C (stereo not given),0.787%,–,–
Cn1c(=O)[nH]c(=O)c2c1nc([N+](=O)[O-])n2Cc1ccccc1,-65.9%,"9.2 µM [falling, partial curve]","8.2 µM [falling, partial curve]"
N#CCC(=O)c1sccc1-n1cccc1,-34.9%,"11.6 µM [falling, single point]","14.6 µM [falling, partial curve]"
CC(C)N=C1SC(CC(=O)Nc2ccccc2)C(=O)N1C(C)C (stereo not given),-39.6%,"32.6 µM [falling, single point]","1.84 µM [falling, partial curve]"
Cc1c(C)c2ccc(OCc3ccc(C(=O)O)o3)c(C)c2oc1=O,96.7%,"16.4 µM [rising, single point]",–
C/C(=N\Nc1ccc2nncn2n1)c1ccccn1,-24.3%,–,"9.2 µM [falling, partial curve, poor fit]"
COc1ccc(-c2csc3ncnc(N4CCN(c5ccccc5O)CC4)c23)cc1,-2.7%,–,–
O=c1cc(-c2ccccc2Cl)oc2c([N+](=O)[O-])c(O)cc(O)c12,-12.5%,–,"20.6 µM [rising, single point]"
Cc1ccc(S(=O)(=O)N2CCN(C(=O)CC(C)n3nc(C)c(Cl)c3C)CC2)cc1C (stereo not given),-6.08%,–,"29.1 µM [rising, single point]"
O=C(CN1CCCC1)Nc1c(Cl)cccc1Cl,9.84%,–,"4.11 µM [rising, single point]"
Cc1cc(=O)n2nc(N3CCCC(C(=O)NCCCN4CCc5ccccc5C4)C3)sc2n1 (stereo not given),10.1%,–,"16.4 µM [rising, single point]"
Cc1ccccc1-c1nnc(SCc2ccccc2)o1,-24.1%,–,"1.64 µM [rising, partial curve, poor fit]"
C=CCn1nnnc1SCC(=O)Nc1cccc(C(F)(F)F)c1,17.3%,–,–

# Reformatted with bars between the fields: entries from further up
SMILES | cell number change | AC50 [1] | AC50 [2]
CCn1c(C(O)c2ccc3c(c2)OCO3)nc2ccccc21 (stereo not given) | -29.3% | – | 6.51 µM [falling, single point]
O=C(Nc1ccc(N2CCN(Cc3ccccc3F)CC2)cc1)c1ccc([N+](=O)[O-])o1 | -17.7% | – | 9.2 µM [falling, partial curve]
CC(C)CCSc1cc(NCCO)c([N+](=O)[O-])c2nonc12 | – | 7.31 µM [falling, single point] | –

# (listing goes on)

SMILES,cell number change,AC50 [1],AC50 [2]
CCN(C(=O)Cn1cnc2ccccc2c1=O)C1CCS(=O)(=O)C1 (stereo not given),-30.9%,"2.06 µM [falling, full curve]","1.84 µM [falling, full curve]"
COC(=O)c1ccc2c(=O)[nH]c(CN3c4ccccc4CC3C)nc2c1 (stereo not given),0.0126%,"1.3 µM [rising, partial curve]",–
C/C(=N/NC(=O)c1ccc(Br)o1)c1cccc(NC(=O)c2ccc(C)o2)c1,7.28%,–,"0.058 µM [rising, full curve, poor fit]"
O=C(Nc1ccccc1N1CCCC1)C1CCN(S(=O)(=O)c2ccccc2)CC1,-7.56%,–,"16.4 µM [falling, partial curve]"
COc1ccc(-c2nc3ccc(N4CCCC4)cc3c(=O)[nH]2)cc1OC,-8.2%,–,–
CCOc1ccc(NC(=O)CSc2nnc(C3CC3)n2C2CC2)cc1,-13.2%,–,"0.0517 µM [falling, full curve, poor fit]"
CC[C@@]12C(=O)N(c3cccc(Br)c3)C(=O)N1[C@H](c1ccc(F)cc1)[C@@H]1C(=O)N(C3CCCCC3)C(=O)[C@@H]12,13.7%,–,"0.00461 µM [falling, full curve, poor fit]"
O=C(N[C@H]1CCC(=O)N(CCSc2ccc(Br)cc2)CC1)OCc1ccccc1,3.05%,–,–
Cc1cc(NC(=O)c2cccnc2)ccc1NC(=O)c1ccco1,9.59%,–,"5.8 µM [rising, single point]"
CCOC(=O)C1=C(C)NC2=C(C(=O)c3ccccc32)C1c1cccc2ccccc12 (stereo not given),–,–,"14.6 µM [falling, partial curve]"
COc1cc(NC(=O)c2ccccc2)ccc1NC(=O)Cc1ccccc1,-26.2%,–,"0.731 µM [rising, single point]"
CCCOc1ccc(C=Nc2ccc(OC)c(S(=O)(=O)N3CCOCC3)c2)c(O)c1,-24.1%,–,–
CCCSc1nnc(N2C(=O)CC(c3ccsc3)C3=C2CCCC3=O)s1 (stereo not given),37%,–,–
CCN1C(=O)/C(=C/c2ccc(OC)c(OC)c2)N=C1SCC(=O)NCc1ccco1,21%,–,"6.51 µM [falling, single point]"
CCOc1ncccc1C(=O)OCC(=O)N(CC(C)C)C1CCS(=O)(=O)C1 (stereo not given),23.8%,"1.84 µM [rising, full curve, poor fit]",–
Cc1ccn(CC(=O)O)c(=O)c1,-3.34%,–,"8.2 µM [falling, partial curve, poor fit]"
O=C(Nc1ccc(Cl)c(S(=O)(=O)N2CCCCC2)c1)c1ccco1,–,–,"0.461 µM [falling, single point]"
CN(CC1CCOCC1)C(=O)CC1C(=O)NCCN1Cc1cccc(F)c1 (stereo not given),31.9%,"16.4 µM [rising, single point]","20.6 µM [rising, single point]"
c1ccc(COc2ccc(OCCCN3CCCCC3)cc2)cc1,8.19%,–,"0.259 µM [falling, full curve, poor fit]"
CC(C)CC(=O)Nc1nnc(S(=O)(=O)N(C)Cc2ccco2)s1,–,–,"0.116 µM [rising, single point]"
O=C(Cn1cc(C(F)(F)F)cc(Cl)c1=O)Nc1ccc(N2CCOCC2)cc1,51.7%,"0.92 µM [rising, full curve]","0.82 µM [rising, full curve, poor fit]"

# Reference: PubChem BioAssay AID2685 (National Center for Advancing Translational Sciences (NCATS), 2010)
